Measured values taken from patent US20070224194A1, “Methods for Inhibiting Angiogenesis and/or Lymphangiogenesis” (LUDWIG INSTITUTE FOR CANCER RESEARCH, priority 2004, published 2007).
These are yes or no findings as the source states them, for the method shown. For some assays here: In cells and extracts the contact can be indirect. Some results given as binding are weak or reduced against the parent protein; the word gives no strength.

Protein sequences, listed by entry. Tags and fused reporters are not part of them. Residues count along the entry.
UniProt P35916, residues 25-775: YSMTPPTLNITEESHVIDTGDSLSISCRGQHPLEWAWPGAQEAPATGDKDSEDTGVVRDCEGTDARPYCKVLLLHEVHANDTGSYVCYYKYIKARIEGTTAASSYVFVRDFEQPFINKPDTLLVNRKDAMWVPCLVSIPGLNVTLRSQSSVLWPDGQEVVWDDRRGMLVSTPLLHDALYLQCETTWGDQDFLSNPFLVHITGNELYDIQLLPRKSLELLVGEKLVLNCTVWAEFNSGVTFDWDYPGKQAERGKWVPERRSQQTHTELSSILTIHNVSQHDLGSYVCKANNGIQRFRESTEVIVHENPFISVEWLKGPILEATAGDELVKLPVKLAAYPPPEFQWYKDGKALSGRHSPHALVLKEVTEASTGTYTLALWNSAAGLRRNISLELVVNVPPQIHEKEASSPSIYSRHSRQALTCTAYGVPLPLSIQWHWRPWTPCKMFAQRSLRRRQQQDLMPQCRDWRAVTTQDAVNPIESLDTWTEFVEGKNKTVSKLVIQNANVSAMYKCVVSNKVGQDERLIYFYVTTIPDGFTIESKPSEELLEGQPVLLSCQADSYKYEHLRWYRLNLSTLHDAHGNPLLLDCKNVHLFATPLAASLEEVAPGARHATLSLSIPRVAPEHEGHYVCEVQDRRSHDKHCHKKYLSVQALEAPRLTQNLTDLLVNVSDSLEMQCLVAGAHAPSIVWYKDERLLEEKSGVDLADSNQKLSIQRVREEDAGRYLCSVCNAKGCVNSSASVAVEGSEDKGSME
UniProt P35968, residues 20-764: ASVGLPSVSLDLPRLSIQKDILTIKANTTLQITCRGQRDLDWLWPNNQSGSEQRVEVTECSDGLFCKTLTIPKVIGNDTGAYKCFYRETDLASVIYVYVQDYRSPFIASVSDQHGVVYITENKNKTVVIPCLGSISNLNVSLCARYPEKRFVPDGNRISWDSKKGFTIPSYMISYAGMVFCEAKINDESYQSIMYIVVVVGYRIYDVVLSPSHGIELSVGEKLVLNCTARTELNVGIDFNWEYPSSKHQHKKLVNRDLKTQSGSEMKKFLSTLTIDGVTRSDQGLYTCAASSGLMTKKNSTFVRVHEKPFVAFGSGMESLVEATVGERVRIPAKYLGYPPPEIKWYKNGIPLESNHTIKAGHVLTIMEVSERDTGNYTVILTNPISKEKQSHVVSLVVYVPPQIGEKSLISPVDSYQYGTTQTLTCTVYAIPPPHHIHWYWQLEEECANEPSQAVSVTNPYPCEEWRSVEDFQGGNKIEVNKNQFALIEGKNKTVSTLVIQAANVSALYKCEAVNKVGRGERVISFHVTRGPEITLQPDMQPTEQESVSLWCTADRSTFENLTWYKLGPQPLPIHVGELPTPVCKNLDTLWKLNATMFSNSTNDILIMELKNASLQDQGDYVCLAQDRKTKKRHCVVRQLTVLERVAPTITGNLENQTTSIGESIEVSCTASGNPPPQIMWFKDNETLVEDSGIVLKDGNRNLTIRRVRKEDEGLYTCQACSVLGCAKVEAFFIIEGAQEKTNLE

Tests used:
[1] = biological target: VEGFR-3-Ig (human) (UniProt P35916); assay: pull-down with receptor-Ig on protein-A sepharose, Western blot
[2] = biological target: VEGFR-2-Ig (human) (UniProt P35968); assay: as above
[3] = biological target: VEGFR-3-Ig (human) (UniProt P35916); assay: pull-down with receptor-Ig on protein-A sepharose, Western blot (FIG. 9C)
[4] = biological target: VEGFR-2-Ig (human) (UniProt P35968); assay: as above
[5] = biological target: VEGFR-3 (as used in the biosensor analysis) (UniProt P35916); assay: SPR biosensor (summary of Example 6)

binding [1]	binding [2]	binding [3]	binding [4]	binding [5]	Binder
binds	binds	binds	binds		mature form of VEGF-D generated by furin (ligand, human, UniProt O43915 89-205, looked up, range 89-205; Present in conditioned medium of LoVo cells co-transfected with pVDAPEX FULL-N-FLAG and pcDNA3:furin; not purified; also called ˜21 kDa VEGF-D species; mature VEGF-D) FAATFYDIETLKVIDEEWQRTQCSPRETCVEVASELGKSTNTFFKPPCVNVFRCGGCCNEESLICMNTSTSYISKQLFEISVPLTSVPELVPVKVANHTGCKCLPTAPRHPYSIIRR
				binds	VEGF-DSSTS.IISS (ligand) NEHGPVKRSSQSTLERSEQQIRAASSLEELLRITHSEDWKLWRCRLRLKSFTSMDSRSASHSSTSFAATFYDIETLKVIDEEWQRTQCSPRETCVEVASELGKSTNTFFKPPCVNVFRCGGCCNEESLICMNTSTSYISKQLFEISVPLTSVPELVPVKVANHTGCKCLPTAPRHPYSIISSSIQIPEEDRCSHSKKLCPIDMLWDSNKCKCVLQEENPLAGTEDHSHLQEPALCGPHMMFDEDRCECVCKTPCPKDLIQHPKNCSCFECKESLETCCQKHKLFHPDTCSCEDRCPFHTRPCASGKTACAKHCRFPKEKRAAQGPHSRKNP
